Values from PubChem BioAssay AID652243 (Drosophila RNAi Screening Center, 2013)

- Assay: 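Knock-downs that decrease or increase androgen receptor reporter signal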 (primary screen)
- Cell system: Drosophila S2R+ cells
- Reagents: long dsRNA against Drosophila genes
- Timing: 72 h (48 h, then 24 h hormone)
- Treatment: synthetic androgen R1881 at 10 nM for 24 h
- Detection: 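Per-well raw luminescence of the androgen-driven firefly reporter and of the Renilla control, two replicates each, without normalisation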
- Direction: firefly reporter light: higher = more light from androgen-responsive reporter; Renilla control light: higher = more constitutive control signal (cell number, transfection)
- Hit rule: 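Hit when the log firefly-to-Renilla ratio dropped or increased by a fixed fold versus the mean of GFP or LacZ controls across duplicate plates; lowering cut given as 1.5 and as 3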
- Meaning of the calls: active = hit: reporter lowered or raised; inactive = no hit
The screen tested about 24,000 reagents; shown is an unselected part of those with a known target gene and a result. Of all reagents, 246 (1%) were called active. 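Plates not normalised; calls are printed but the firefly/Renilla ratio behind them is not deposited; fold cut for lowering reported inconsistently.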 Raw values vary from plate to plate and are shown uncorrected. Not stated in the record: the amount of reagent.

gene | dsRNA | firefly reporter light, replicate 1 | firefly reporter light, replicate 2 | Renilla control light, replicate 1 | Renilla control light, replicate 2 | Call
Bruce | DRSC16015 | 1.09e5 | 1.27e5 | 1.75e6 | 1.88e6 | inactive
AspRS-m | DRSC02646 | 88179 | 1.08e5 | 1.37e6 | 1.59e6 | inactive
Bcat | DRSC19756 | 5.94e5 | 7.09e5 | 3.57e6 | 4.06e6 | inactive
Bcat | DRSC28324 | 3.71e5 | 6.87e5 | 1.50e6 | 2.18e6 | inactive
pix | DRSC10533 | 2.03e5 | 1.88e5 | 2.14e6 | 1.52e6 | inactive
cic | DRSC16918 | 99209 | 1.26e5 | 2.44e6 | 2.26e6 | active
cic | DRSC21243 | 1.85e5 | 1.76e5 | 4.20e5 | 4.66e5 | inactive
cic | DRSC23217 | 5.40e5 | 6.77e5 | 1.98e5 | 2.56e5 | inactive
cic | DRSC25516 | 8.93e5 | 5.38e5 | 7.36e5 | 5.07e5 | inactive
cic | DRSC25800 | 14178 | 16565 | 1.35e5 | 1.03e5 | inactive
cic | DRSC30090 | 1.39e6 | 1.26e6 | 1.46e6 | 1.36e6 | inactive
Sec5 | DRSC00714 | 5.65e5 | 9.27e5 | 1.15e6 | 1.42e6 | inactive
DZIP1 | DRSC14620 | 1.95e5 | 2.56e5 | 2.74e6 | 2.65e6 | inactive
CG30339 | DRSC05168 | 1.56e5 | 2.10e5 | 1.89e5 | 2.25e5 | inactive
CG14877 | DRSC15001 | 1.56e5 | 1.32e5 | 2.32e6 | 2.04e6 | inactive
CG14877 | DRSC30033 | 2.19e5 | 2.55e5 | 1.20e6 | 1.35e6 | inactive
Cdk9 | DRSC04601 | 1.60e5 | 1.89e5 | 1.67e6 | 1.28e6 | inactive
Cec2 | DRSC21885 | 7.79e5 | 5.79e5 | 1.40e6 | 1.04e6 | inactive
Cec2 | DRSC29067 | 6.49e5 | 6.11e5 | 4.49e5 | 4.64e5 | inactive
CG3777 | DRSC18489 | 1.12e6 | 1.05e6 | 2.79e6 | 4.10e6 | inactive
CG3777 | DRSC24661 | 8.74e5 | 7.16e5 | 1.24e6 | 1.31e6 | inactive
Pebp1 | DRSC15354 | 2.74e5 | 3.50e5 | 3.58e6 | 3.86e6 | inactive
RhoGAP71E | DRSC10232 | 59771 | 39523 | 4.31e5 | 2.87e5 | inactive
RhoGAP71E | DRSC10838 | 2.16e5 | 2.17e5 | 1.56e6 | 1.91e6 | inactive
RhoGAP71E | DRSC29082 | 4.64e5 | 4.24e5 | 1.38e6 | 1.21e6 | inactive

A run of entries of the results above, as a working copy:
gene | dsRNA | firefly reporter light, replicate 1 | firefly reporter light, replicate 2 | Renilla control light, replicate 1 | Renilla control light, replicate 2 | Call
Cec2 | DRSC21885 | 7.79e5 | 5.79e5 | 1.40e6 | 1.04e6 | inactive
Cec2 | DRSC29067 | 6.49e5 | 6.11e5 | 4.49e5 | 4.64e5 | inactive
CG3777 | DRSC18489 | 1.12e6 | 1.05e6 | 2.79e6 | 4.10e6 | inactive
CG3777 | DRSC24661 | 8.74e5 | 7.16e5 | 1.24e6 | 1.31e6 | inactive
